Test [1] concerns the target Flag-tagged VPS34 (UniProt Q8NEB9). As to the kind of experiment: co-IP; 293T cells co-transfected with Flag-tagged VPS34 and GRP78-GFP (wild type or mutant) plasmids, with or without SAHA for 12 h; lysates immunoprecipitated with an anti-Flag antibody, immunoblotted with an anti-GFP antibody. A general note: A western blot detects proteins with antibodies after separation by electrophoresis.

Sequences of proteins named here, by UniProt entry; tags and fusion partners are left off. A change or cut given only in a name is not applied to a line headed by its entry. A line that says so, or that is headed by a name, gives the form on record, which may keep a tag or linker. Residues count along the entry.
UniProt Q8NEB9: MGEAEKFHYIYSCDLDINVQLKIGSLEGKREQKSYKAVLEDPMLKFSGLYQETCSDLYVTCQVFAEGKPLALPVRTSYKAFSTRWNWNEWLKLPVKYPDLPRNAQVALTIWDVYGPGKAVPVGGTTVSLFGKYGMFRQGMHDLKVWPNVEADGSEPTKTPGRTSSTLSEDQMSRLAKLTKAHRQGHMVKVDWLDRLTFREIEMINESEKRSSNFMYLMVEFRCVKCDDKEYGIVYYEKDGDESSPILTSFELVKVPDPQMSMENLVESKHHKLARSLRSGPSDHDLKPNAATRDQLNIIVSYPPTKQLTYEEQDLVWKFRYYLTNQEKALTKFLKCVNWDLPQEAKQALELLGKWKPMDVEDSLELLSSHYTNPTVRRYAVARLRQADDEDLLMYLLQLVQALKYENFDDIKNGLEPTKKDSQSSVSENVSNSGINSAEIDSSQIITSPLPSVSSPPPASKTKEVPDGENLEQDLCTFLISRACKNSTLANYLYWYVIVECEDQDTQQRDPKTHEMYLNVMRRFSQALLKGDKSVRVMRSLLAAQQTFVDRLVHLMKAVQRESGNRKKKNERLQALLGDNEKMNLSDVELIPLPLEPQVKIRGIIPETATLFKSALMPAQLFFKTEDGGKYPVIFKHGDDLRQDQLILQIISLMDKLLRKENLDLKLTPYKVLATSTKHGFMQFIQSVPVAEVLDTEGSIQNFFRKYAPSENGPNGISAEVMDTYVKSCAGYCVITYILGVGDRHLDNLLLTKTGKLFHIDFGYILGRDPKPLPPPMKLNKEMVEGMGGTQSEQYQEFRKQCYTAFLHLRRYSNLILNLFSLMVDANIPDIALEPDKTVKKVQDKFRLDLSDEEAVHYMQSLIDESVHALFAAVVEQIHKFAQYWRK
Glucose-regulated protein 78 (GRP78), endogenous in DLD1 cells (human (endogenous in DLD1)) (P11021, residues 19-654): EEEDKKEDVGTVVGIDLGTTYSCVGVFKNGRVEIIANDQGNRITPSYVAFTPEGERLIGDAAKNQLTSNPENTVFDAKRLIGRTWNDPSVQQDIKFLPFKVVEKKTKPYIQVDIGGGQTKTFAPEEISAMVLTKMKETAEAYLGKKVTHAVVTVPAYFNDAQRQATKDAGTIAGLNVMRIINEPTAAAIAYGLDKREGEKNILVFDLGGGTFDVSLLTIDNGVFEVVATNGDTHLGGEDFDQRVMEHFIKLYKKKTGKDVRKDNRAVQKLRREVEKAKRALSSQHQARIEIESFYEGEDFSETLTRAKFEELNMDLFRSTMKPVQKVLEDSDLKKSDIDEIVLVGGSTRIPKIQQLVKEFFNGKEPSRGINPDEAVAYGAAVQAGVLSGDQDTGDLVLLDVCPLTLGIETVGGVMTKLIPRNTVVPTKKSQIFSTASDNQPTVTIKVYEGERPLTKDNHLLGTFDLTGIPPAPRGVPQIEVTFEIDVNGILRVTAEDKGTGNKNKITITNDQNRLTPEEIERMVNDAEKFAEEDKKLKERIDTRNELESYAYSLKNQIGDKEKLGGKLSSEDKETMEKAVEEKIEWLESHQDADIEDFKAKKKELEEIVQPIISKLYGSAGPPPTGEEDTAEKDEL
GRP78-GFP K633Q mutant (PLVX-GRP78-AcGFP-K633Q) (P11021, form named): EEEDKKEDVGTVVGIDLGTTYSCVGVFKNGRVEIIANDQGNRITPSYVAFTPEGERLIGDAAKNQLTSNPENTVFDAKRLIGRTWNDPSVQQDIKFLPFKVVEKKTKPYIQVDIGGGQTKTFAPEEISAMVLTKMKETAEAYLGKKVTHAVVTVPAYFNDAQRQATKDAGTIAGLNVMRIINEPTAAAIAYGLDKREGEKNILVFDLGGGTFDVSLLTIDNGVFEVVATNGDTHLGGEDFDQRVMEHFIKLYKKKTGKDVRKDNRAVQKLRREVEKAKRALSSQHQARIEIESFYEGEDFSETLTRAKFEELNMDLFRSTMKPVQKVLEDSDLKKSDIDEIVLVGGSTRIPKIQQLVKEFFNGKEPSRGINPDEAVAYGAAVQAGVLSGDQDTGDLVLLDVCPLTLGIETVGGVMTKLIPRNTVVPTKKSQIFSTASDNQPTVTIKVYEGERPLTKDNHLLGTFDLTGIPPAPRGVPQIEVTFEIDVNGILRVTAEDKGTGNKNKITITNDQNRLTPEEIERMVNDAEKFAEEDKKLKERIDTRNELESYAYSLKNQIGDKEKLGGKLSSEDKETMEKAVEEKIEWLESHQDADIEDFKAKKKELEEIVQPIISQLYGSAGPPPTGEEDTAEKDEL
UniProt Q9UBN7: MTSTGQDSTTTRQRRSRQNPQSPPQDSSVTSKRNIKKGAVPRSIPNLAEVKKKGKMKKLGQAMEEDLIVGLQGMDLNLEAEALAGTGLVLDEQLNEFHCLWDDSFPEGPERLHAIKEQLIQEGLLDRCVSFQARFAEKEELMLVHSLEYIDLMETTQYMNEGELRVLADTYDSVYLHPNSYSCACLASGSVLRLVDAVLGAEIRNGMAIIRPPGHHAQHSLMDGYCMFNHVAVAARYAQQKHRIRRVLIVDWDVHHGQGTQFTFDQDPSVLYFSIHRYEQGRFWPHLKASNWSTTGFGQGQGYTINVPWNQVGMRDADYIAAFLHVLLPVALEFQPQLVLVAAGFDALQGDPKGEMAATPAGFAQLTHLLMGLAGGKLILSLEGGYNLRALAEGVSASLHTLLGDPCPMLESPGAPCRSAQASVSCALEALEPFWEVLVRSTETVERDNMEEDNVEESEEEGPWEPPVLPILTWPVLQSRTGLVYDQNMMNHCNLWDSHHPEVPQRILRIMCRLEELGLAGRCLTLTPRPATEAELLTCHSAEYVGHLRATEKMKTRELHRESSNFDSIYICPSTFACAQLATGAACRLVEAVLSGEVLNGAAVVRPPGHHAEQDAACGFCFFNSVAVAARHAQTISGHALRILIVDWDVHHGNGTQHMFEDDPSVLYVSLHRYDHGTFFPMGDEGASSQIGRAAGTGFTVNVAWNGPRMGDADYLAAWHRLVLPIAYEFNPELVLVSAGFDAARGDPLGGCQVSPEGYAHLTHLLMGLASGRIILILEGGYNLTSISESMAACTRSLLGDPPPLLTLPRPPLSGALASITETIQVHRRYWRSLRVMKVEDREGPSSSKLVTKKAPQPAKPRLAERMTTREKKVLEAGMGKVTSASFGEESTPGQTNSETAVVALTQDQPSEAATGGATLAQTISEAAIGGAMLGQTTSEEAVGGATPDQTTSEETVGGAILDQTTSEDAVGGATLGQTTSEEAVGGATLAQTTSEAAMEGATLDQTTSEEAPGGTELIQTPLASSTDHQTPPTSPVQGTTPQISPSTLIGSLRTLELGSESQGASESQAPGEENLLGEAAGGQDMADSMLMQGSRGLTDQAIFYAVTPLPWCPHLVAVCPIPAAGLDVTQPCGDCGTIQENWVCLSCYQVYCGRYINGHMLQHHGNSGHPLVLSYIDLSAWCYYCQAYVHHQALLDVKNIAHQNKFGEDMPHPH

Test [2] addresses Glucose-regulated protein 78 (GRP78), endogenous in DLD1 cells (human (endogenous in DLD1)) (UniProt P11021). As to the kind of experiment: co-IP; DLD1 whole-cell lysates, cells treated or untreated with SAHA; immunoprecipitated with an anti-GRP78 antibody, immunoblotted with anti-HDAC6 and anti-VPS34 antibodies; all proteins endogenous.

Results are given in words; binding and its absence hold for the method and conditions named. In cells and extracts the contact can be indirect. Some binding calls cover weakened binding; strength is not graded here.

For the substance “GRP78-GFP fusion protein (wild-type GRP78, plasmid PLVX-GRP78-AcGFP) (from UniProt P11021 19-654)”, in test [1], the binding result was “binds”.

With “GRP78-GFP K633Q mutant (PLVX-GRP78-AcGFP-K633Q) (from UniProt P11021 19-654)”, the binding result in test [1] is “binds”.

With “Histone deacetylase 6 (HDAC6), endogenous in DLD1 cells (from UniProt Q9UBN7 1-1215)”, in test [2], the binding entry is “binds”.

(Values after article PMC4961953.)
